# Results are given in words; binding and its absence hold for the method and conditions named. Binding seen in cells or lysates may run through a third protein. Some results given as binding are weak or reduced against the parent protein; the word gives no strength.
# By UniProt entry, the sequences of proteins in these tests, tags left out. Residues count along the entry.
# UniProt Q9C5A9, residues 55-559: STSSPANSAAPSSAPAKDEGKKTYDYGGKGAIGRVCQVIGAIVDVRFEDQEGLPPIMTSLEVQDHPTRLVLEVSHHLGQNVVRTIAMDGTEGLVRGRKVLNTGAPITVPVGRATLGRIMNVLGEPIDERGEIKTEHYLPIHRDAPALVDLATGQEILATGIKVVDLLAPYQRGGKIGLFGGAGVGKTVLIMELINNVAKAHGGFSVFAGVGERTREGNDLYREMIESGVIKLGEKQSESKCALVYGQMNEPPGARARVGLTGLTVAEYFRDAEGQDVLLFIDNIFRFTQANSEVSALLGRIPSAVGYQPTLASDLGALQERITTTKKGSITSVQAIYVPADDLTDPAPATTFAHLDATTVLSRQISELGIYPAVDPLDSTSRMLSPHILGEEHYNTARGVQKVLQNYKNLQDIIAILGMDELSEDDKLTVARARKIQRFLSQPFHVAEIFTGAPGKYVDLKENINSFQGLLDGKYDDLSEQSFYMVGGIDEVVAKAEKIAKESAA
# UniProt Q9C9W3: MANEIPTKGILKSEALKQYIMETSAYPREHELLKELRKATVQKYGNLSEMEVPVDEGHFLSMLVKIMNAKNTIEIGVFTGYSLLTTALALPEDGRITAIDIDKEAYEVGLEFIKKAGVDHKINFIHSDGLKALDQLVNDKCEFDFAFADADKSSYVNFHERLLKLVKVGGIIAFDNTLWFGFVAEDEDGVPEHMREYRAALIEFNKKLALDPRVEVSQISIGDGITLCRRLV
# Molecular target: CPK3-eGFP (Arabidopsis thaliana) (UniProt Q42479)
# Assay: FRET or BRET; FRET-FLIM in Nicotiana benthamiana epidermal leaf cells; donor CPK3-eGFP, acceptor N-terminal mRFP or C-terminal mCherry fusion; average GFP lifetime in a cytoplasmic sector (nucleus for HMGB5); at least five cells per sample
row,Substance,binding
1,AT5G08680-mCherry (from UniProt Q9C5A9 55-559),binds
2,mRFP-AT5G08680 (from UniProt Q9C5A9 55-559),binds
3,mRFP-CCoAMT (from UniProt Q9C9W3 1-232),no binding

# — PMC3458939
